For at least one compound, name, drawing or mass did not settle the structure.
Legend:
[1] = target: T1, Human recombinant serotonin 5-HT2A receptors (Homo sapiens, UniProt P28223); assay: 5-HT2A receptor radioligand binding inhibition ([3H]Ketanserin); conditions: conclusion from % inhibition at 10 μM over ten receptors
T1 construct: expressed in transfected cells; host or cells: CHO-K1
Method: (§1) Four novel LSD derivatives according to the present invention (referred to as “Compound 1”, “Compound 2”, “Compound 3”, and “Compound 4”; structures depicted below) were screened at 10 μM at key receptors of interest in order to determine % binding inhibition. Targets were selected due to prior evidence that LSD binds these targets with moderate or high affinities in vitro, as well as their functional significance in the context of human health.
Human recombinant serotonin 5-HT2A receptors expressed in CHO-K1 cells were used in modified Tris-HCl buffer pH 7.4. A 30 μg aliquot of membrane protein was incubated with 0.5 nM [^3H]Ketanserin for 60 minutes at 25° C. Non-specific binding was estimated in the presence of 1 μM Mianserin. Receptors were filtered and washed, the filters were then counted to determine [^3H]Ketanserin specifically bound. Test compounds were screened at 10 μM.
(§2) Experimental results were expressed as a percent of control specific binding, via the equation: […]
(§3) For each target, data from two experimental replicates were averaged to generate a mean % inhibition.

The chains behind the UniProt entries cited, without tags or fusion partners.
UniProt P28223, whole entry: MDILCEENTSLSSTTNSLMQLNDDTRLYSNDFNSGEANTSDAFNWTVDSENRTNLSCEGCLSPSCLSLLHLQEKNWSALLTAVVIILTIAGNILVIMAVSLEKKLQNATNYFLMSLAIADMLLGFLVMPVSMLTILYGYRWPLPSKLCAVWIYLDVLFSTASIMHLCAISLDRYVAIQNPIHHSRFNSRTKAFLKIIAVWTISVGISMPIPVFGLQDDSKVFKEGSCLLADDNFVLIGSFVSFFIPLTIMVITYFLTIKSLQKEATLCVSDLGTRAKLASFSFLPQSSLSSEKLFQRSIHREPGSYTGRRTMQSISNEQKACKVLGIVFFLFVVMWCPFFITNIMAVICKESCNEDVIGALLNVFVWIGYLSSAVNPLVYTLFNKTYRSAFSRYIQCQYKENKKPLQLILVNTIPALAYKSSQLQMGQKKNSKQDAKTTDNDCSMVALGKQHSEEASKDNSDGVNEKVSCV

[2] = target: T2, Human recombinant adenosine A2A receptors (Homo sapiens, UniProt P29274); assay: A2A receptor radioligand binding inhibition ([3H]CGS-21680); conditions: 10 μM; % inhibition greater than 50% interpreted as potentially significant interaction
T2 construct: expressed in transfected cells; host or cells: HEK-293
Method: as §1
Human recombinant adenosine A2A receptors expressed in human HEK-293 cells were used in modified Tris-HCl buffer pH 7.4. A 15 μg aliquot was incubated with 50 nM [^3H]CGS-21680 for 90 minutes at 25° C. Non-specific binding was estimated in the presence of 50 μM NECA. Receptor were filtered and washed, the filters were then counted to determine [^3H]CGS-21680 specifically bound. Test compounds were screened at 10 μM.
as §2, §3

[3] = tested on: human dopamine D4.7 receptor; assay: D4.7 receptor radioligand binding inhibition ([3H]Spiperone); conditions: screened at 10 μM; mean of two replicates
Method: as §1
CHO-K1 cells stably transfected with a plasmid encoding the human dopamine D4.7 receptor were used to prepare membranes in modified Tris-HCl buffer pH 7.4. A 60 μg aliquot of membrane was incubated with 1.5 nM [^3H]Spiperone for 120 minutes at 25° C. Non-specific binding was estimated in the presence of 10 μM haloperidol. Membranes were filtered and washed, the filters were then counted to determine [^3H]Spiperone specifically bound. Test compounds were screened at 10 μM.
as §2, §3

With `CN1CC(C(=O)N2CC3(COC3)C2)C=C2c3cccc4[nH]cc(c34)CC21` (stereo not drawn) [Compound 1, 2-oxa-6-azaspiro[3.3]heptyl-lysergic acid amide] the “selectivity as ligand of the 5-HT2A receptor, in words” value [1] was “advantageously selective ligands of the 5-HT2A receptor”, the “interaction at A2A receptor, in words” value [2] was “no significant interaction” and the “% inhibition, D4.7” value [3] was 80.9%.

Source: patent publication US20230286975A1, “IMPROVED METHOD FOR THE PRODUCTION OF LYSERGIC ACID DIETHYLAMIDE (LSD) AND NOVEL DERIVATIVES THEREOF” (COMPASS […], priority 2020, published 2023)
